Measured values taken from the supplement of paper PMC10849652.
Some of the results follow.

Amino acid sequences for entries named in this document (tags omitted). A change or cut given only in a name is not applied to a line headed by its entry.
UniProt P49591: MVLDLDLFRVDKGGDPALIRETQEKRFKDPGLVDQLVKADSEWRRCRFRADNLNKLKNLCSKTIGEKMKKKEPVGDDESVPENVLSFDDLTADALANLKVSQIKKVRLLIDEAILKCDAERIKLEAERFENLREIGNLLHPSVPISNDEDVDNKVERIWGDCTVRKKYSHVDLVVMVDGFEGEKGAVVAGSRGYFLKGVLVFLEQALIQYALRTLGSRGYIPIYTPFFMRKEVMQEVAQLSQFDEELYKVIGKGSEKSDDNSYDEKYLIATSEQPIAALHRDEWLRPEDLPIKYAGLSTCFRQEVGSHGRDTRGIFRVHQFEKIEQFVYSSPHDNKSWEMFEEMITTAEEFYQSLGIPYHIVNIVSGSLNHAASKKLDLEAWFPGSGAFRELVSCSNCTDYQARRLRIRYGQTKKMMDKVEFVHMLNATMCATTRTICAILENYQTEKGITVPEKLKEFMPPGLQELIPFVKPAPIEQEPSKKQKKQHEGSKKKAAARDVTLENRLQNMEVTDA
UniProt Q15424: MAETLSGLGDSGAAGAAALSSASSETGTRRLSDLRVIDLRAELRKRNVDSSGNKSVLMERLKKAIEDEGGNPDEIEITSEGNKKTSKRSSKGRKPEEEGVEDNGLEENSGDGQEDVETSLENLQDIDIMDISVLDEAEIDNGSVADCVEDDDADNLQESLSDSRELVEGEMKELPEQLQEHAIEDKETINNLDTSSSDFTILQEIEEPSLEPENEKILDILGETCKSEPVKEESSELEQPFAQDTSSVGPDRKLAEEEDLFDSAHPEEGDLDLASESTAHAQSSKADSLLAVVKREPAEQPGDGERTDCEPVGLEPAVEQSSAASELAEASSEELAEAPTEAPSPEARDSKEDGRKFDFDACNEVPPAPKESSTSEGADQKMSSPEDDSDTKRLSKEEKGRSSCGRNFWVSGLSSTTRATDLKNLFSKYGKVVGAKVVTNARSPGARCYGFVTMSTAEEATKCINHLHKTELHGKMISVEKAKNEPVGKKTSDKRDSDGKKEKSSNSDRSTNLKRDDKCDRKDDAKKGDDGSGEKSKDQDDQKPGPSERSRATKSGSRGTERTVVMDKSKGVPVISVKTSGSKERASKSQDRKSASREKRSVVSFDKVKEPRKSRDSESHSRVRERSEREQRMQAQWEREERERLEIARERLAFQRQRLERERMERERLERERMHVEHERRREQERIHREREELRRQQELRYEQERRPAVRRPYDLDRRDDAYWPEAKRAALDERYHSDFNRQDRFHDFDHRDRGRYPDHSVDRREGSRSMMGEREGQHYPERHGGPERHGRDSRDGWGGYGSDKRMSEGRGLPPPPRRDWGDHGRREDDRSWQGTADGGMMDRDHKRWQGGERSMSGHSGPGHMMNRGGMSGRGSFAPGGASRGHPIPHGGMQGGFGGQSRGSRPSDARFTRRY
UniProt Q9UGP8: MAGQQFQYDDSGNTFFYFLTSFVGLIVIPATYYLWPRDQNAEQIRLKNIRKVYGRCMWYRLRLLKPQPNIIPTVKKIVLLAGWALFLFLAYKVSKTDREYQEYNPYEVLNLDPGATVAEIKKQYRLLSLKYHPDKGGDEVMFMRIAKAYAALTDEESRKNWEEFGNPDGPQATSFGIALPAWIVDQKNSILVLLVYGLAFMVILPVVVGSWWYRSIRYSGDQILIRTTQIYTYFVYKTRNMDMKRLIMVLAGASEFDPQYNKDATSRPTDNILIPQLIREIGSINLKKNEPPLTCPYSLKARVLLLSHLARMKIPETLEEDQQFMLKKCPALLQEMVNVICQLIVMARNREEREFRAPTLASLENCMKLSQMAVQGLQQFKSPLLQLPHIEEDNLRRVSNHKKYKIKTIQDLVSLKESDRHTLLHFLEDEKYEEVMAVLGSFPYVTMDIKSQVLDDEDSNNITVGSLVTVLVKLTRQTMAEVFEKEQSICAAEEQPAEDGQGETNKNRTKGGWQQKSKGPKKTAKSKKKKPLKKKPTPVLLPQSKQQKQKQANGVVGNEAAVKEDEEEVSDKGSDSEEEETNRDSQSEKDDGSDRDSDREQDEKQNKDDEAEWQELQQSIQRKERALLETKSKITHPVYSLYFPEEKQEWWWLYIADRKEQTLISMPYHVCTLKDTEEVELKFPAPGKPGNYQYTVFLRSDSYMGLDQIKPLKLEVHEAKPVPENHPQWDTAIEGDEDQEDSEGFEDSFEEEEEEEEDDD

Assays:
Test in all cases: log2 fold change, soluble protein after heating vs DMSO (PISA); higher = thermal stabilisation; K562 lysate, 10 uM; active = over 0.2 and 3.5 SD of the protein, either way, in both replicates (recomputed)
erlotinib = compound: C#Cc1cccc(Nc2ncnc3cc(OCCOC)c(OCCOC)cc23)c1 [erlotinib]
In short: (§1)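 Pellets of K562 cells were dounce-homogenised in PBS pH 7.4 with 1 mM MgCl2, and the crude extract was held at 1 mg/mL protein for a 30 min treatment with 10 μM compound. Aliquots were heated for 3 min over 48°C-58°C and pooled before NP-40 was added to 0.5% at 4°C. The supernatant from 21,000xg for 90 min was quantified by TMTpro 16plex LC-MS/MS with channel sums equalised. Values are reported from duplicates as log-two fold change in thermal stability relative to solvent controls.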

[1] = compound: C/C(=N\NC(=O)C1=CC(=CC=C1)S(=O)(=O)N2CCOCC2)/C3=C(C=CC(=C3)Cl)O
In short: as §1

[2] = compound: C1=CC(=CC=C1C2=NC3=C(N2)C=C(C=C3)C(=O)N)OC4=CC=C(C=C4)Cl
In short: as §1

[3] = compound: C1=CC2=C(C=CC(=C2)/C=C\3/C(=O)NC(=NCC4=CC=CS4)S3)N=C1
In short: as §1

[4] = compound: C1=CC2=NC=CN=C2C=C1/C=C/3\C(=O)NC(=O)S3
In short: as §1

[5] = compound: C1=CC=C(C=C1)C2=NC(=C(N2)C3=CC=NC=C3)C4=CC(=C(C=C4)Cl)O
In short: as §1

[6] = compound: C1=CC=C(C=C1)[C@H](COC2=CC3=C(C=C2)NC(=O)N3)NC(=O)C4=CC=CN(C4=O)CC5=CC(=C(C=C5)F)F
In short: as §1

[7] = compound: C1=CC=C2C(=C1)C3=NNC4=CC=CC(=C43)C2=O
In short: as §1

[8] = compound: C1CCN(C1)C(=O)NC2=CC=CC(=C2)NC3=NC=C(C(=N3)NCCC4=CN=CN4)Br
In short: as §1

[9] = compound: C1CN(CCC1(CC2=CC=C(C=C2)Cl)N)C3=NC=NC4=C3C=CN4
In short: as §1

IRAK-1-4 Inhibitor I = compound: C1COCCN1CCN2C3=CC=CC=C3N=C2NC(=O)C4=CC(=CC=C4)[N+](=O)[O-] [IRAK-1-4 Inhibitor I]
In short: as §1

ibrutinib = compound: C=CC(=O)N1CCC[C@@H](n2nc(-c3ccc(Oc4ccccc4)cc3)c3c(N)ncnc32)C1 [ibrutinib]
In short: as §1

[10] = compound: CC(=O)c1cnc2ccc(-c3cc(Cl)c(O)c(Cl)c3)nc2c1N[C@H]1CC[C@H](CN(C)C)CC1
In short: as §1

ralimetinib = compound: CC(C)(C)Cn1c(N)nc2ccc(-c3[nH]c(C(C)(C)C)nc3-c3ccc(F)cc3)nc21 [ralimetinib]
In short: as §1

[11] = compound: CC(C)(O)CC(=O)NCCn1ccc2ncnc(Nc3ccc(Oc4cccc(C(F)(F)F)c4)c(Cl)c3)c21
In short: as §1

[12] = compound: CC(C)C1=C2N=C(C=C(N2N=C1)NCC3=CC=CC=C3)NCCCCCCN
In short: as §1

[13] = compound: CC1=C(C(CC(=O)N1)C2=CC=C(C=C2)C(F)(F)F)C(=O)NC3=C(C=C4C(=C3)C=NN4)F
In short: as §1

[14] = compound: CC1=C(C2=C(C=C1)C(=O)C3=CC=CC=C3N2CCCN)C
In short: as §1

[15] = compound: CC1=C(C=C(C=C1)NC(=O)C2=CC(=CC=C2)C(C)(C)C#N)NC3=CC4=C(C=C3)N=CN(C4=O)C
In short: as §1

[16] = compound: CC1=C(C=C(C=C1)NC(=O)C2=CC(=CC=C2)N(C)C)NC(=O)C3=CC=C(C=C3)O
In short: as §1

[17] = compound: CC1=C(SC2=C1C(=N[C@H](C3=NN=C(N32)C)CC(=O)N)C4=CC=C(C=C4)Cl)C
In short: as §1

[18] = compound: CC1=C2C(=CC=C1)N=C(N(C2=O)C3=CC=CC=C3C)CN4C=NC5=C(N=CN=C54)N
In short: as §1

[19] = compound: CC1=CC=C(C=C1)SC2=C3C=C(SC3=CN=C2)C(=O)N
In short: as §1

vemurafenib = compound: CCCS(=O)(=O)Nc1ccc(F)c(C(=O)c2c[nH]c3ncc(-c4ccc(Cl)cc4)cc23)c1F [vemurafenib]
In short: as §1

[20] = compound: CCCS(=O)(=O)Nc1ccc(F)c(C(=O)c2c[nH]c3ncc(Cl)cc23)c1F
In short: as §1

barasertib = compound: CCN(CCCOc1ccc2c(Nc3cc(CC(=O)Nc4cccc(F)c4)[nH]n3)ncnc2c1)CCOP(=O)(O)O [barasertib]
In short: as §1

[21] = compound: CC[C@@H]1C(=O)N(C)c2cnc(Nc3ccc(C(=O)NC4CCN(C)CC4)cc3OC)nc2N1C1CCCC1
In short: as §1

volasertib = compound: CC[C@@H]1C(=O)N(C)c2cnc(Nc3ccc(C(=O)N[C@H]4CC[C@H](N5CCN(CC6CC6)CC5)CC4)cc3OC)nc2N1C(C)C [volasertib]
In short: as §1

[22] = compound: CCn1c(C(=O)N(C2CC2)C2CC2)cc2c3c(ncn3C)c(Nc3cc(C)n(C)n3)nc21
In short: as §1

[23] = compound: CCn1cc(-c2ccnc3[nH]c(-c4cccc(CN(C)C)c4)cc23)c(-c2ccc(NC(=O)N(C)C)cc2)n1
In short: as §1

[24] = compound: CN1CCC(CNc2ccc3ncc(-c4cccc(OC(F)(F)F)c4)n3n2)CC1
In short: as §1

saracatinib = compound: CN1CCN(CCOc2cc(OC3CCOCC3)c3c(Nc4c(Cl)ccc5c4OCO5)ncnc3c2)CC1 [saracatinib]
In short: as §1

sotrastaurin = compound: CN1CCN(c2nc(C3=C(c4c[nH]c5ccccc45)C(=O)NC3=O)c3ccccc3n2)CC1 [sotrastaurin]
In short: as §1

alvocidib = compound: CN1CC[C@H](c2c(O)cc(O)c3c(=O)cc(-c4ccccc4Cl)oc23)[C@H](O)C1 [alvocidib]
In short: as §1

Tubastatin A = compound: CN1CCc2c(c3ccccc3n2Cc2ccc(C(=O)NO)cc2)C1 [Tubastatin A]
In short: as §1

[25] = compound: CNC(=O)C1=CC=CC=C1NC2=NC(=NC=C2Cl)NC3=C(C=C(C=C3)N4CCOCC4)OC
In short: as §1

defactinib = compound: CNC(=O)c1ccc(Nc2ncc(C(F)(F)F)c(NCc3nccnc3N(C)S(C)(=O)=O)n2)cc1 [defactinib]
In short: as §1

[26] = compound: CNc1nc(-c2ccc3c(N)n[nH]c3c2)cc(N2C[C@@H](C(=O)NC3CCCCC3)CC[C@H]2C)n1
In short: as §1

encorafenib = compound: COC(=O)N[C@@H](C)CNc1nccc(-c2cn(C(C)C)nc2-c2cc(Cl)cc(NS(C)(=O)=O)c2F)n1 [encorafenib]
In short: as §1

[27] = compound: COC(=O)[C@H](CCSC)NC(=O)C1=C(C=C(C=C1)NC[C@H](CS)N)C2=CC=CC=C2
In short: as §1

alisertib = compound: COc1cc(Nc2ncc3c(n2)-c2ccc(Cl)cc2C(c2c(F)cccc2OC)=NC3)ccc1C(=O)O [alisertib]
In short: as §1

[28] = compound: COc1cc2nc(-c3cc(F)ccc3O)nc(N[C@@H]3CNC[C@H]3C(C)(C)O)c2cc1OC
In short: as §1

gefitinib = compound: COc1cc2ncnc(Nc3ccc(F)c(Cl)c3)c2cc1OCCCN1CCOCC1 [gefitinib]
In short: as §1

lapatinib = compound: CS(=O)(=O)CCNCc1ccc(-c2ccc3ncnc(Nc4ccc(OCc5cccc(F)c5)c(Cl)c4)c3c2)o1 [lapatinib]
In short: as §1

pictilisib = compound: CS(=O)(=O)N1CCN(Cc2cc3nc(-c4cccc5[nH]ncc45)nc(N4CCOCC4)c3s2)CC1 [pictilisib]
In short: as §1

crizotinib = compound: C[C@@H](Oc1cc(-c2cnn(C3CCNCC3)c2)cnc1N)c1c(Cl)ccc(F)c1Cl [crizotinib]
In short: as §1

[29] = compound: C[C@H](C1=CC=C(C=C1)C(=O)NC2=C3C=CNC3=NC=C2)N
In short: as §1

duvelisib = compound: C[C@H](Nc1ncnc2nc[nH]c12)c1cc2cccc(Cl)c2c(=O)n1-c1ccccc1 [duvelisib]
In short: as §1

gandotinib = compound: Cc1cc(Nc2cc(CN3CCOCC3)c3nc(C)c(Cc4ccc(Cl)cc4F)n3n2)n[nH]1 [gandotinib]
In short: as §1

tozasertib = compound: Cc1cc(Nc2cc(N3CCN(C)CC3)nc(Sc3ccc(NC(=O)C4CC4)cc3)n2)n[nH]1 [tozasertib]
In short: as §1

doramapimod = compound: Cc1ccc(-n2nc(C(C)(C)C)cc2NC(=O)Nc2ccc(OCCN3CCOCC3)c3ccccc23)cc1 [doramapimod]
In short: as §1

bafetinib = compound: Cc1ccc(NC(=O)c2ccc(CN3CC[C@H](N(C)C)C3)c(C(F)(F)F)c2)cc1Nc1nccc(-c2cncnc2)n1 [bafetinib]
In short: as §1

[30] = compound: Cc1cccc(CC(=O)N2CCc3c2ccc(-c2cn(C)c4ncnc(N)c24)c3F)n1
In short: as §1

nilotinib = compound: Cc1cn(-c2cc(NC(=O)c3ccc(C)c(Nc4nccc(-c5cccnc5)n4)c3)cc(C(F)(F)F)c2)cn1 [nilotinib]
In short: as §1

[31] = compound: Cc1nc(Nc2n[nH]c3c2CN(C(=O)N[C@H](CN(C)C)c2ccccc2)C3(C)C)c2sccc2n1
In short: as §1

dasatinib = compound: Cc1nc(Nc2ncc(C(=O)Nc3c(C)cccc3Cl)s2)cc(N2CCN(CCO)CC2)n1 [dasatinib]
In short: as §1

[32] = compound: Cc1ncc(-c2ccnc(Nc3ccc(S(C)(=O)=O)cc3)n2)n1C(C)C
In short: as §1

[33] = compound: Cc1sc2c(c1C)C(c1ccc(Cl)cc1)=N[C@@H](CC(=O)OC(C)(C)C)c1nnc(C)n1-2
In short: as §1

[34] = compound: Cn1cc(-c2ccc3c(c2)CCN3C(=O)Cc2cccc(C(F)(F)F)c2)c2c(N)ncnc21
In short: as §1

quisinostat = compound: Cn1cc(CNCC2CCN(c3ncc(C(=O)NO)cn3)CC2)c2ccccc21 [quisinostat]
In short: as §1

tipifarnib = compound: Cn1cncc1[C@@](N)(c1ccc(Cl)cc1)c1ccc2c(c1)c(-c1cccc(Cl)c1)cc(=O)n2C [tipifarnib]
In short: as §1

[35] = compound: NC(=O)Nc1cc(-c2cccc(F)c2)sc1C(=O)N[C@H]1CCCNC1
In short: as §1

[36] = compound: NC(=O)c1cnc(N[C@@H]2CCCC[C@@H]2N)nc1Nc1cccc(-n2nccn2)c1
In short: as §1

[37] = compound: NC1(c2ccc(-c3nc4ccn5c(=O)[nH]nc5c4cc3-c3ccccc3)cc2)CCC1
In short: as §1

[38] = compound: NCC(=O)Nc1ccc(-n2nc(C(F)(F)F)cc2-c2ccc3c(ccc4ccccc43)c2)cc1
In short: as §1

vorinostat = compound: O=C(CCCCCCC(=O)Nc1ccccc1)NO [vorinostat]
In short: as §1

silmitasertib = compound: O=C(O)c1ccc2c(c1)nc(Nc1cccc(Cl)c1)c1ccncc12 [silmitasertib]
In short: as §1

[39] = compound: O=C1NC(=O)C(c2cnc3ccccn23)=C1c1cn2c3c(cc(F)cc13)CN(C(=O)N1CCCCC1)CC2
In short: as §1

[40] = compound: c1ccc([C@@H]2C[C@H]2NC2CCNCC2)cc1
In short: as §1

entospletinib = compound: c1cn2cc(-c3ccc4cn[nH]c4c3)nc(Nc3ccc(N4CCOCC4)cc3)c2n1 [entospletinib]
In short: as §1

Measured: log2 fold change

SARS (UniProt P49591)
inactive: erlotinib 0.002 | [1] 0.055 | [2] 0.003 | [3] -0.015 | [4] -0.02 | [5] -0.012 | [6] -0.001 | [7] -0.013 | [8] -0.009 | [9] -0.005 | IRAK-1-4 Inhibitor I -0.002 | ibrutinib 0.035 | [10] 0.014 | ralimetinib 0.003 | [11] 0 | [12] 0.006 | [13] -0.022 | [14] 0 | [15] -0.005 | [16] 0.002 | [17] 0.007 | [18] -0.01 | [19] 0.01 | vemurafenib -0.01 | [20] -0.004 | barasertib -0.024 | [21] -0.027 | volasertib -0.027 | [22] -0.001 | [23] 0.093 | [24] -0.033 | saracatinib -0.006 | sotrastaurin -0.011 | alvocidib 0.029 | Tubastatin A -0.006 | [25] -0.009 | defactinib -0.017 | [26] -0.025 | encorafenib 0.007 | [27] -0.039 | alisertib 0.013 | [28] 0.001 | gefitinib -0.014 | lapatinib 0 | pictilisib -0.006 | crizotinib 0.026 | [29] 0.095 | duvelisib 0.01 | gandotinib -0.034 | tozasertib -0.016 | doramapimod -0.03 | bafetinib 0.062 | [30] -0.044 | nilotinib 0.01 | [31] -0.015 | dasatinib -0.032 | [32] 0.009 | [33] 0.009 | [34] 0.005 | quisinostat 0.07 | tipifarnib 0.029 | [35] 0.003 | [36] -0.019 | [37] 0.015 | [38] -0.011 | vorinostat -0.079 | silmitasertib -0.004 | [39] 0.03 | [40] 0.055 | entospletinib 0.017

SAFB isoform 3 (UniProt Q15424)
inactive: [6] 0.053 | [17] -0.043 | [18] 0.036 | [33] -0.022 | [40] -0.082

SEC63 (UniProt Q9UGP8)
inactive: [6] 0.026 | [17] -0.009 | [18] 0.018 | [33] -0.011 | [40] -0.034
